PubChem BioAssay AID1224830 | NIAID, 2016
Screen: 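Host factors that control LPS-induced TNF expression in human macrophages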 (primary screen). Cells: human THP-1 monocytic leukaemia cells, TNF dual-luciferase reporter clone, PMA-differentiated to macrophage-like cells. Knock-down reagent: siRNA pool against human genes, 50 nM. Time to read-out: LPS for 4 h, given about 3 days after siRNA transfection. Challenge: bacterial LPS (TLR4 ligand), 10 ng/ml. Measurement: 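Ratio of firefly to renilla light, scaled to the plate median and expressed as a robust z-score per replicate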. Scale: TNF reporter robust z-score: higher = stronger TNF reporter response to LPS. Active means: 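a well is active when its z-score exceeds 2.8 or falls below -1.5; control wells carry no call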.
This is one part, drawn at random, of about 18,000 deposited reagents. Over the whole deposit, about 2,900 (16%) got an active call. 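Calls are made per well; low scores hint the gene aids the LPS response, high scores that it dampens it.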 Entries without a mark were called inactive. Repeated entries: four replicate wells of each siRNA pool.

target gene	TNF reporter robust z-score
PLCZ1	0.46
PLCZ1	0.74
PLCZ1	-0.19
PLCZ1	-0.61
PCDHB1	0.05
PCDHB1	0.87
PCDHB1	0.34
PCDHB1	-0.04
TGFBR2	1.03
TGFBR2	1.88
TGFBR2	0.76
TGFBR2	-0.65
ST14	-0.02
ST14	-0.74
ST14	0.73
ST14	-0.25
DUSP13B	-0.69
DUSP13B	0.11
DUSP13B	0.62
DUSP13B	-1.38
ANKRD55	-1.14
ANKRD55	-0.79
ANKRD55	-1.06
ANKRD55	-0.7
NKAPD1	-0.05
NKAPD1	0.9
NKAPD1	-0.46
NKAPD1	0.67
SEC24A	-0.15
SEC24A	0.36
SEC24A	-0.27
FAM133B	0.3
FAM133B	1.74
FAM133B	1.22
FAM133B	-0.38
RNF220	-0.99
RNF220	-1.1
RNF220	-2.41 (active)
RNF220	1.15
ALDH3A1	0.54
ALDH3A1	1.99
ALDH3A1	0.14
ALDH3A1	2.61
MID1	-0.19
MID1	1.84
MID1	0.6
MID1	1.88

Entries listed so far with an active call, once more:
target gene	TNF reporter robust z-score
RNF220	-2.41 (active)
